Results deposited as PubChem BioAssay AID1159601 (NIAID, 2016).
The whole screen tested 756 reagents; this is a random part of them. Over the whole deposit, 143 (19%) are marked active. 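Calls include both lowered and raised reporter signal; each row is a single siRNA, not a gene summary; Pam3CSK4 dose not stated.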 Unmarked entries are inactive. The numbers tell different reagents against one gene apart. The record does not give: the amount of reagent.

Aim: 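Knock-down of 126 canonical TLR pathway genes, testing the TNF response to a TLR2 ligand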 (primary screen)
System: human THP-1 reporter cells differentiated with PMA into macrophage-like cells
Knock-down reagent: single siRNA against human genes
Timing: ligand added 4 hours before read-out; cells assayed 48 to 72 hours after siRNA transfection
Challenge: Pam3CSK4 (TLR2 ligand) for 4 hours; dose not given
Detection: 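TNF promoter dual-luciferase ratio measured 4 h after Pam3CSK4, converted to robust z-scores against negative controls and averaged across replicates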
Direction: TNF reporter z-score: higher = stronger TNF promoter reporter activity
Call rule: 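Grade increases with absolute z-score, cut points 1, 1.5, 2 and 2.5, both signs; rows called active have z near or beyond ±1.5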
Meaning of the calls: active = clear change (up or down); inactive = little change

no.	gene	reagent no.	TNF reporter z-score, replicate mean
1	MYD88 (MYD88 innate immune signal transduction adaptor)	1	-1.87 (active)
2	MYD88 (MYD88 innate immune signal transduction adaptor)	2	-0.725
3	MYD88 (MYD88 innate immune signal transduction adaptor)	3	-2.5 (active)
4	MYD88 (MYD88 innate immune signal transduction adaptor)	4	0.232
5	MYD88 (MYD88 innate immune signal transduction adaptor)	5	0.949
6	MYD88 (MYD88 innate immune signal transduction adaptor)	6	0.975
7	CXCL11 (C-X-C motif chemokine ligand 11)	1	-1.63 (active)
8	CXCL11 (C-X-C motif chemokine ligand 11)	2	0.0883
9	CXCL11 (C-X-C motif chemokine ligand 11)	3	-0.298
10	CXCL11 (C-X-C motif chemokine ligand 11)	4	-0.51
11	CXCL11 (C-X-C motif chemokine ligand 11)	5	-0.857
12	CXCL11 (C-X-C motif chemokine ligand 11)	6	-0.525
13	MAP3K7 (mitogen-activated protein kinase kinase kinase 7)	1	-2.87 (active)
14	MAP3K7 (mitogen-activated protein kinase kinase kinase 7)	2	-5.11 (active)
15	MAP3K7 (mitogen-activated protein kinase kinase kinase 7)	3	-5.17 (active)
16	MAP3K7 (mitogen-activated protein kinase kinase kinase 7)	4	-0.927
17	MAP3K7 (mitogen-activated protein kinase kinase kinase 7)	5	-4.03 (active)
18	MAP3K7 (mitogen-activated protein kinase kinase kinase 7)	6	-2.13 (active)
19	IFNAR2 (interferon alpha and beta receptor subunit 2)	1	-1.08
20	IFNAR2 (interferon alpha and beta receptor subunit 2)	2	-1.81 (active)
21	IFNAR2 (interferon alpha and beta receptor subunit 2)	3	-2.1 (active)
22	IFNAR2 (interferon alpha and beta receptor subunit 2)	4	-0.935
23	IFNAR2 (interferon alpha and beta receptor subunit 2)	5	-0.0431
24	IFNAR2 (interferon alpha and beta receptor subunit 2)	6	-0.907
25	IRAK3 (interleukin 1 receptor associated kinase 3)	1	0.311
26	IRAK3 (interleukin 1 receptor associated kinase 3)	2	-0.614
27	IRAK3 (interleukin 1 receptor associated kinase 3)	3	0.093
28	IRAK3 (interleukin 1 receptor associated kinase 3)	4	-0.191
29	IRAK3 (interleukin 1 receptor associated kinase 3)	5	-0.732
30	IRAK3 (interleukin 1 receptor associated kinase 3)	6	-0.614
31	CCL3 (C-C motif chemokine ligand 3)	1	-1.21
32	CCL3 (C-C motif chemokine ligand 3)	2	-0.313
33	CCL3 (C-C motif chemokine ligand 3)	3	0.0509
34	CCL3 (C-C motif chemokine ligand 3)	4	-0.208
35	CCL3 (C-C motif chemokine ligand 3)	5	-0.486
36	CCL3 (C-C motif chemokine ligand 3)	6	-0.156
37	IL12B (interleukin 12B)	1	-1.3
38	IL12B (interleukin 12B)	2	-0.219
39	IL12B (interleukin 12B)	3	-1.13
40	IL12B (interleukin 12B)	4	-0.676
41	IL12B (interleukin 12B)	5	-1.85 (active)
42	IL12B (interleukin 12B)	6	-1.13
43	MAPK13 (mitogen-activated protein kinase 13)	1	-1.71 (active)
44	MAPK13 (mitogen-activated protein kinase 13)	2	-0.634
45	MAPK13 (mitogen-activated protein kinase 13)	3	-2.36 (active)
46	MAPK13 (mitogen-activated protein kinase 13)	4	-0.201
47	MAPK13 (mitogen-activated protein kinase 13)	5	-0.446
48	MAPK13 (mitogen-activated protein kinase 13)	6	-0.475
49	TLR2 (toll like receptor 2)	1	1.51 (active)
50	TLR2 (toll like receptor 2)	2	-1.14
51	TLR2 (toll like receptor 2)	3	-1.51 (active)
52	TLR2 (toll like receptor 2)	4	0.68
53	TLR2 (toll like receptor 2)	5	-0.878
54	TLR2 (toll like receptor 2)	6	-0.618
55	MAP2K3 (mitogen-activated protein kinase kinase 3)	1	0.0617
56	MAP2K3 (mitogen-activated protein kinase kinase 3)	2	-0.954
57	MAP2K3 (mitogen-activated protein kinase kinase 3)	3	-0.497
58	MAP2K3 (mitogen-activated protein kinase kinase 3)	4	-2.37 (active)
59	MAP2K3 (mitogen-activated protein kinase kinase 3)	5	0.0677
60	MAP2K3 (mitogen-activated protein kinase kinase 3)	6	-3.04 (active)
61	ARF6 (ARF GTPase 6)	1	0.657
62	ARF6 (ARF GTPase 6)	2	-0.129
63	ARF6 (ARF GTPase 6)	3	0.675
64	ARF6 (ARF GTPase 6)	4	-1.51 (active)
65	ARF6 (ARF GTPase 6)	5	-0.618
66	ARF6 (ARF GTPase 6)	6	0.0172
67	TLR9 (toll like receptor 9)	1	-2.01 (active)
68	TLR9 (toll like receptor 9)	2	0.727
69	TLR9 (toll like receptor 9)	3	2.15 (active)
70	TLR9 (toll like receptor 9)	4	1.19
71	TLR9 (toll like receptor 9)	5	-0.425
72	TLR9 (toll like receptor 9)	6	1.5
73	MAPK3 (mitogen-activated protein kinase 3)	1	-1.09
74	MAPK3 (mitogen-activated protein kinase 3)	2	-0.174
75	MAPK3 (mitogen-activated protein kinase 3)	3	-1.64 (active)
76	MAPK3 (mitogen-activated protein kinase 3)	4	0.274
77	MAPK3 (mitogen-activated protein kinase 3)	5	-0.872
78	MAPK3 (mitogen-activated protein kinase 3)	6	-1.94 (active)
79	PTPN6 (protein tyrosine phosphatase non-receptor type 6)	1	-0.473
80	PTPN6 (protein tyrosine phosphatase non-receptor type 6)	2	0.434
81	PTPN6 (protein tyrosine phosphatase non-receptor type 6)	3	-0.349
82	PTPN6 (protein tyrosine phosphatase non-receptor type 6)	4	-1.85 (active)
83	PTPN6 (protein tyrosine phosphatase non-receptor type 6)	5	-1.01
84	PTPN6 (protein tyrosine phosphatase non-receptor type 6)	6	-0.413
85	AKT1 (AKT serine/threonine kinase 1)	1	0.812
86	AKT1 (AKT serine/threonine kinase 1)	2	-0.127
87	AKT1 (AKT serine/threonine kinase 1)	3	0.678
88	AKT1 (AKT serine/threonine kinase 1)	4	-0.298
89	AKT1 (AKT serine/threonine kinase 1)	5	-0.146
90	AKT1 (AKT serine/threonine kinase 1)	6	-0.66
91	MAP2K2 (mitogen-activated protein kinase kinase 2)	1	-0.835
92	MAP2K2 (mitogen-activated protein kinase kinase 2)	2	-0.334
93	MAP2K2 (mitogen-activated protein kinase kinase 2)	3	-1.68 (active)
94	MAP2K2 (mitogen-activated protein kinase kinase 2)	4	0.425
95	MAP2K2 (mitogen-activated protein kinase kinase 2)	5	0.563
96	MAP2K2 (mitogen-activated protein kinase kinase 2)	6	-0.715
97	NFKBIA (NFKB inhibitor alpha)	1	-1.38
98	NFKBIA (NFKB inhibitor alpha)	2	0.236
99	NFKBIA (NFKB inhibitor alpha)	3	0.248
100	NFKBIA (NFKB inhibitor alpha)	4	-0.936
101	NFKBIA (NFKB inhibitor alpha)	5	-0.625
102	NFKBIA (NFKB inhibitor alpha)	6	-0.0706
103	IRF7 (interferon regulatory factor 7)	1	-0.854
104	IRF7 (interferon regulatory factor 7)	2	-1.5
105	IRF7 (interferon regulatory factor 7)	3	1.94 (active)
106	IRF7 (interferon regulatory factor 7)	4	-0.811
107	IRF7 (interferon regulatory factor 7)	5	-1.53 (active)
108	IRF7 (interferon regulatory factor 7)	6	0.286
109	MAP3K8 (mitogen-activated protein kinase kinase kinase 8)	1	-1.91 (active)
110	MAP3K8 (mitogen-activated protein kinase kinase kinase 8)	2	-2.72 (active)
111	MAP3K8 (mitogen-activated protein kinase kinase kinase 8)	3	-2.89 (active)
112	MAP3K8 (mitogen-activated protein kinase kinase kinase 8)	4	-1.02
113	MAP3K8 (mitogen-activated protein kinase kinase kinase 8)	5	-2.47 (active)
114	MAP3K8 (mitogen-activated protein kinase kinase kinase 8)	6	-0.736

As entered above.
For “TNF reporter z-score, replicate mean”, IRAK3 (interleukin 1 receptor associated kinase 3) #2 reads -0.614
Under “TNF reporter z-score, replicate mean”, MYD88 (MYD88 innate immune signal transduction adaptor) #1 shows -1.87 (active)
Under “TNF reporter z-score, replicate mean”, NFKBIA (NFKB inhibitor alpha) #2 is entered as 0.236
IFNAR2 (interferon alpha and beta receptor subunit 2) #4, TNF reporter z-score, replicate mean: -0.935
Result for MYD88 (MYD88 innate immune signal transduction adaptor) #5 in “TNF reporter z-score, replicate mean”: 0.949
Result of MAP3K8 (mitogen-activated protein kinase kinase kinase 8) #3 under “TNF reporter z-score, replicate mean”: -2.89 (active)
